From PMC12299885 come the findings set out here.

Sequences of proteins named here, by UniProt entry; tags and fusion partners are left off. Residues count along the entry.
UniProt Q60841, residues 27-3461: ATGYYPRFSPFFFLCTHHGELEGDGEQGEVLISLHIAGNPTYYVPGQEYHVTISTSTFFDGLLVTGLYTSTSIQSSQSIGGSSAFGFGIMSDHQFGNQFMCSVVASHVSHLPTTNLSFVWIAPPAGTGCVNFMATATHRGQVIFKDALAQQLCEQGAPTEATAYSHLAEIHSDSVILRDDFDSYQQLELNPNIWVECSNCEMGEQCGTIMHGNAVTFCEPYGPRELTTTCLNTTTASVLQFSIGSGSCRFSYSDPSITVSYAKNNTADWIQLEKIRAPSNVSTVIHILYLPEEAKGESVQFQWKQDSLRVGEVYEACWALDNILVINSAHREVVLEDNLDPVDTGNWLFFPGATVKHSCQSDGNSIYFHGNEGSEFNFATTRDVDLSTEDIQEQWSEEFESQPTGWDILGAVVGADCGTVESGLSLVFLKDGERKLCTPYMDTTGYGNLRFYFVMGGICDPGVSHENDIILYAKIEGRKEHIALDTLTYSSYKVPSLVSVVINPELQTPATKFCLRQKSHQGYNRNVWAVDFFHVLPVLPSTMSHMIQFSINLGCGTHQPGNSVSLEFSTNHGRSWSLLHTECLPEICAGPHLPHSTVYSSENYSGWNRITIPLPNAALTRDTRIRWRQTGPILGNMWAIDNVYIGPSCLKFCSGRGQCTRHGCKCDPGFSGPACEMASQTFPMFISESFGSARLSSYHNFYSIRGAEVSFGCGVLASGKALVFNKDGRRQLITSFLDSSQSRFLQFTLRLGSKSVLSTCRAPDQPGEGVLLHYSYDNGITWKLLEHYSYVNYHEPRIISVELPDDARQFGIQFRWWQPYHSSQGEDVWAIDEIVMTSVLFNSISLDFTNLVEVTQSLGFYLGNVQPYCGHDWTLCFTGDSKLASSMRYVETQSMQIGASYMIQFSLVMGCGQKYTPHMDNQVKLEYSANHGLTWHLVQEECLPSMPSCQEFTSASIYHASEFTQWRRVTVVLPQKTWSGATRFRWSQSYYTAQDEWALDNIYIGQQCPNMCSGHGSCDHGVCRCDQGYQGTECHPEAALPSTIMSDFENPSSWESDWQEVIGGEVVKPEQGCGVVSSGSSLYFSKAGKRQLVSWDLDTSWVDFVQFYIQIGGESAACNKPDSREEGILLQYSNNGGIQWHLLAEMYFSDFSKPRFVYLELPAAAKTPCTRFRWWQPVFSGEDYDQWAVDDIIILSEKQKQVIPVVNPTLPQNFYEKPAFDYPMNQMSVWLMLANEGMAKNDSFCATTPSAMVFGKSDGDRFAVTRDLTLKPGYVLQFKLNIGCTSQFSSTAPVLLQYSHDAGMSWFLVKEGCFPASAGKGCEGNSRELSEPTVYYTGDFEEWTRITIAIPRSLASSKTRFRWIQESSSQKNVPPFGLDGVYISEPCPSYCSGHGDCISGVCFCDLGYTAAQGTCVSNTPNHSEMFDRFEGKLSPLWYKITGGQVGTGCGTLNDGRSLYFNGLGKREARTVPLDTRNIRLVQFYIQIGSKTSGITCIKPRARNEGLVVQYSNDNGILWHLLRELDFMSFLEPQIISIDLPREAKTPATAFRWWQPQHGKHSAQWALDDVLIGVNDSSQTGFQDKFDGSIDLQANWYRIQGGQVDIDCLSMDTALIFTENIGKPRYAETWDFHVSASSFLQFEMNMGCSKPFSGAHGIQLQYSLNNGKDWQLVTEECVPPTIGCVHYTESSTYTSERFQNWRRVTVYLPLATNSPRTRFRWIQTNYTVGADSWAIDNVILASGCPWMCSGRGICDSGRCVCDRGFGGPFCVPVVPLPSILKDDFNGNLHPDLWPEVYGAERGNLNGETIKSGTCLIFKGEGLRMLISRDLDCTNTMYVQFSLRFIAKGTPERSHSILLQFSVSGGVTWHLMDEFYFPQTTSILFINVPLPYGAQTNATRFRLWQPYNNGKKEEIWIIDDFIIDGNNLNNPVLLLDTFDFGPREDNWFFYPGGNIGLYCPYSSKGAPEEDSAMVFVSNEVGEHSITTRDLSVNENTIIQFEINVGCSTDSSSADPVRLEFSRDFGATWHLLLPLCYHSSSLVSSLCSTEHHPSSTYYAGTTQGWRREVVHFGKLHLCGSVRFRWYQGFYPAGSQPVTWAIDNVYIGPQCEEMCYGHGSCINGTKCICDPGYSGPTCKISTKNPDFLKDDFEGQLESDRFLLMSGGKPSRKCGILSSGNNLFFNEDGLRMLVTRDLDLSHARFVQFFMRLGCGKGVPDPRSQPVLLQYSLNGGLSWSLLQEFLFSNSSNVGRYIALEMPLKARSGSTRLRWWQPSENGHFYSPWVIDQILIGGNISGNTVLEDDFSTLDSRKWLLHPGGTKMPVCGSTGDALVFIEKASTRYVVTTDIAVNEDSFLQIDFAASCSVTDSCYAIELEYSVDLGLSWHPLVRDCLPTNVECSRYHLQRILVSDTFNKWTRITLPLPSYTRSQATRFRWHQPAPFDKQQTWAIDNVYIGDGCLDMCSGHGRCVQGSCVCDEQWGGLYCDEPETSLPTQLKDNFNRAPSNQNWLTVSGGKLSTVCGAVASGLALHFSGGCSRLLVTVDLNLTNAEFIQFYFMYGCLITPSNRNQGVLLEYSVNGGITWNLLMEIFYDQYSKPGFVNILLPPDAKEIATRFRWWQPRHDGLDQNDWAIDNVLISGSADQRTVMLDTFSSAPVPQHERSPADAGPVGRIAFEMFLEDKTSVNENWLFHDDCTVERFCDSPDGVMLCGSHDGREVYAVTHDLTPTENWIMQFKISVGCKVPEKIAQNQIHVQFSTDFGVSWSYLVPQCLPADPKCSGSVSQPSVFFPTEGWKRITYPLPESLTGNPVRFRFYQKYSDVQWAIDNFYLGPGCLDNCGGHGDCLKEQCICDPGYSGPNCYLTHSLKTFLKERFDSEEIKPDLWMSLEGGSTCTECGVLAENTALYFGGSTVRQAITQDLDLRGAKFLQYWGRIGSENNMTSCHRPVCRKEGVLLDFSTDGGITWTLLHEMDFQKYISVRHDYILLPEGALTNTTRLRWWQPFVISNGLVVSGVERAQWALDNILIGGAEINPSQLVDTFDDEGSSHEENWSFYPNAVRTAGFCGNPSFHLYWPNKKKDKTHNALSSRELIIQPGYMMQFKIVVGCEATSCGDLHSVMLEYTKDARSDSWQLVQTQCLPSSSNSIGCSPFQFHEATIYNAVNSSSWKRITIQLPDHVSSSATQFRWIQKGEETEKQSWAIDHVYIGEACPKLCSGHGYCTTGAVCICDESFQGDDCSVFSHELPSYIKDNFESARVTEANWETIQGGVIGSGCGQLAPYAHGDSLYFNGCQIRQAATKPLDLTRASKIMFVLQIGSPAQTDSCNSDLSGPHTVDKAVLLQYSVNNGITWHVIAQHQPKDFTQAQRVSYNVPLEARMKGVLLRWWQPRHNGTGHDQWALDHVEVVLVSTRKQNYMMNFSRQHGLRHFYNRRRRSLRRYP
UniProt Q924X6, residues 29-996: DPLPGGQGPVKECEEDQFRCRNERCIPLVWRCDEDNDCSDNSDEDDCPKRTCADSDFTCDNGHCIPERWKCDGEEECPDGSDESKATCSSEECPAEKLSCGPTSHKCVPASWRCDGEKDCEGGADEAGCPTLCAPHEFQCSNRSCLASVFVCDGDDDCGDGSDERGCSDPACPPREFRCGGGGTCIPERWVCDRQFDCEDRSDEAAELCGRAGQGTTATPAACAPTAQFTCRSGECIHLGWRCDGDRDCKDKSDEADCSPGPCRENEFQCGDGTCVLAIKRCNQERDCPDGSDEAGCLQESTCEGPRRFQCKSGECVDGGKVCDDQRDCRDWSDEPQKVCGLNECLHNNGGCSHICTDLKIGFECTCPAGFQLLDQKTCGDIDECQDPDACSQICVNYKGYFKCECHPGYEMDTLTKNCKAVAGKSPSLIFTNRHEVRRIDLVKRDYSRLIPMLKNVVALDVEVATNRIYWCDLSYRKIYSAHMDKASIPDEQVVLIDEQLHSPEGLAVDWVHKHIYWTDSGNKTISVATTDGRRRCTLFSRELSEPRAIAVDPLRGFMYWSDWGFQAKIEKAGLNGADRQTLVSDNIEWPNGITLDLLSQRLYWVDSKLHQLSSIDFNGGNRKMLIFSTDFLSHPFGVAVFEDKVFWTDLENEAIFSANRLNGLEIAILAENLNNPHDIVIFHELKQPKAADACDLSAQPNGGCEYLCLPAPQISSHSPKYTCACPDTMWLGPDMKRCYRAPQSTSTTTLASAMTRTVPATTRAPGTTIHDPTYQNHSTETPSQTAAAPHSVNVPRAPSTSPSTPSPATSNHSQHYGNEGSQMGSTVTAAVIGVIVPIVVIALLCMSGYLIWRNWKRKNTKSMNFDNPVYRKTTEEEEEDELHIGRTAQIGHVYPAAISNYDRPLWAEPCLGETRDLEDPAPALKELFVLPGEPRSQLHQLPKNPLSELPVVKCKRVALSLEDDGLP

Assay [1] addresses Reelin (mouse (endogenous in P4 Prnp+/+ mouse brain)) (UniProt Q60841). Put plainly: co-IP.
The target in assay [2] is apolipoprotein E receptor 2 (ApoER2) (mouse (endogenous in P4 Prnp+/+ mouse brain)) (UniProt Q924X6). Nature of the assay: co-IP.
The target is the same in assay [3]. Nature of the assay: cross-linking + co-IP.
Assay [4] concerns the target cellular prion protein (PrP^C) (mouse (endogenous in P4 Prnp+/+ mouse brain)) (UniProt P04925). Put plainly: co-IP.

No constants are given. Whether binding was seen depends on the method and setting. In cells and extracts the contact can be indirect.

On to “cellular prion protein (PrP^C) (from UniProt P04925 23-230)”, for which the binding entry in assay [1], in assay [2] and in assay [3] was “no binding” in each case. “apolipoprotein E receptor 2 (ApoER2) (from UniProt Q924X6 29-996)”: in assay [4], the binding result is on record as “no binding”. For the substance “Reelin (from UniProt Q60841 27-3461) (ligand)”, in assay [4], the binding result is “no binding”.
